Experimental data reported in PubChem BioAssay AID540256 (National Center for Advancing Translational Sciences (NCATS), 2011).
The whole screen tested about 300,000 compounds, of which about 3,700 (1.2%) were called active. Inconclusive means that the source gave no clear call. Such entries were picked first, then a sample of the others. The call rests on the fitted dose curve; tested in HEK293 cells. Where the call is inconclusive, the potency comes from a doubtful curve fit.

Experiment: qHTS for Inhibitors of binding or entry into cells for Lassa Virus; further: nearly all actives have a fitted effect of over 50% in size
Conditions: Lassa virus pseudotype entry inhibition, cell reporter; series mostly up to 37.9 µM
Potency means the concentration at half of the fitted maximal effect.

SMILES | Potency
O=C(OCC(=O)N1CCCC1)c1cc(Cl)ccc1Cl | inactive
CCC(Oc1ccccc1)C(=O)Nc1ccc(OCc2cc(=O)n3ccc(C)cc3n2)cc1 (stereo unspecified) | inactive
N=c1c2c(-c3ccccc3)c(-c3ccccc3)oc2ncn1CCN1CCOCC1 | inactive
COC(=O)c1ccc(CN(Cc2ccc(OC)c(OC)c2)S(=O)(=O)c2cc(C(=O)Nc3cccc(C)c3)ccc2F)cc1 | inactive
CCOc1ccc(NC(=S)NC(=O)/C=C/c2ccc(OC)c(OC)c2)c([N+](=O)[O-])c1 | inconclusive: 7.3 µM [inhibitor, partial curve]
CCC(CC)C(=O)N1CCCC(c2nc(-c3cccs3)no2)C1 (stereo unspecified) | inactive
CC(=O)c1ccc(NC(=O)N2CCc3ccccc3C2)cc1 | inactive
CN(CC(=O)Nc1ccc(F)cc1)C(=O)c1ccc(-c2ccc(Cl)cc2)o1 | inconclusive: 35.5 µM [inhibitor, single point]
CCOC(=O)c1c(NC(=O)c2ccco2)n(C2CCCCC2)c2nc3ccccc3nc12 | inconclusive: 10.3 µM [inhibitor, partial curve, poor fit]
Cc1ccccc1C=Nc1ccccc1C(N)=O | inconclusive: 4.11 µM [inhibitor, full curve]
O=C(CCCCn1c(=O)c2ccccc2n(Cc2ccccc2F)c1=O)NCc1ccccc1Cl | inactive
Cc1ccc(C(=O)c2ccccc2C(=O)OCC(=O)Nc2ccc(SC(F)F)cc2)cc1 | active: 11.2 µM
Cc1ccc(S(=O)(=O)N(C)CC(=O)N2CCOCC2)cc1 | inactive
O=C(NNC(=O)c1ccccc1O)c1ccc(-c2ccc([N+](=O)[O-])cc2)o1 | inconclusive: 35.5 µM [inhibitor, single point]
COc1ccc(/C=C2/N=C3CCCCCN3C2=O)cc1 | inactive
COc1ccc(NC(=O)COc2ccccc2F)cc1S(=O)(=O)N1CCCCC1 | inconclusive: 10 µM [inhibitor, partial curve, poor fit]
c1ccc(CO/N=C(\c2ccc(C3CC3)nc2)C2CC2)cc1 | inconclusive: 15.8 µM [inhibitor, single point]
O=C(c1ccco1)N1CCN(C(=O)c2cc(-c3ccccn3)nc3ccc(Cl)cc23)CC1 | inconclusive: 10 µM [inhibitor, partial curve]
COc1ccc(-c2ccc(S(=O)(=O)N3CCOCC3)cc2)cc1 | inactive
COc1ccc(OC)c(/C=N/NC(=O)CNC(=O)c2ccc(S(=O)(=O)N3CCCC3)cc2)c1 | inconclusive: 3.55 µM [activator, partial curve, poor fit]
CNc1nc(Nc2ccc(C(C)=O)cc2)nc(OC(C(F)(F)F)C(F)(F)F)n1 | inconclusive: 11.2 µM [inhibitor, partial curve, poor fit]
Cc1nnc(SCCN2CCOCC2)n1C | inactive
CCn1nc(C)c(CCC(=O)O)c1C | inconclusive: 1.26 µM [inhibitor, single point]

Reprinted at random: two entries already listed
SMILES | Potency
CCOc1ccc(NC(=S)NC(=O)/C=C/c2ccc(OC)c(OC)c2)c([N+](=O)[O-])c1 | inconclusive: 7.3 µM [inhibitor, partial curve]
CCC(CC)C(=O)N1CCCC(c2nc(-c3cccs3)no2)C1 (stereo unspecified) | inactive

Continued:

SMILES | Potency
O=C(CN1CCN(CC(=O)Nc2ccccc2F)CC1)Nc1ccc(Cl)c(C(F)(F)F)c1 | inactive
Cc1cc(C)c(S(=O)(=O)Nc2ccc(N(C)C)cc2)c(C)c1-n1cnnn1 | inconclusive: 35.5 µM [inhibitor, single point]
O=c1c2ccccc2nc(SCc2nnc(-c3ccccc3Br)o2)n1Cc1ccco1 | inconclusive: 18.3 µM [inhibitor, partial curve, poor fit]
O=C1c2cccc3c([N+](=O)[O-])ccc(c23)C(=O)N1c1nccs1 | inconclusive: 25.9 µM [inhibitor, partial curve, poor fit]
CCCCn1cc(S(=O)(=O)c2ccccc2)c(=O)c2cc(F)c(N3CCC(C)CC3)cc21 | inactive
COc1ccc(-c2nn(-c3ccccc3)cc2/C=N/NC(N)=S)cc1OC | inconclusive: 0.82 µM [inhibitor, full curve, poor fit]
Fc1cccc(/C=N/Nc2ccccn2)c1 | inactive
CCCN1C(=O)/C(=c2\sc3nc(=O)c(Cc4ccc(C)cc4)nn3c2=O)c2ccccc21 | inconclusive: 0.631 µM [inhibitor, full curve, poor fit]
Cc1ccc(/C=N/NC(=O)c2ccncc2)cc1 | inactive
COCCCN(C(=O)c1cc2c(s1)CCCCC2)c1c(N)n(Cc2ccccc2)c(=O)[nH]c1=O | active: 10 µM
FC(F)(F)c1ccc2c(c1)C1C=CCC1C(c1ccncc1)N2 (stereo unspecified) | inconclusive: 3.55 µM [inhibitor, single point]
COc1ccc(N2C(=O)CS(=O)(=O)C23C(=O)N(Cc2c(F)cccc2Cl)c2ccccc23)cc1 (stereo unspecified) | inconclusive: 0.891 µM [inhibitor, full curve, poor fit]
Cc1nnc(N2C(=O)C(=O)/C(=C(/O)c3ccc4c(c3)CC(C)O4)C2c2ccccc2F)s1 (stereo unspecified) | inactive
Cn1c(-c2ccc(F)cc2)cnc1SCC(=O)NNC(=O)Cc1ccccc1 | inconclusive: 5.62 µM [inhibitor, full curve, poor fit]
COC(=O)C(Cc1ccc(O)cc1)NC(=O)c1ccc2c(c1)OCCO2 (stereo unspecified) | inactive
CC(C)CCNC(=O)c1cc(Sc2ccc(F)cc2F)nc2ccccc12 | inactive
Cc1cccc(NC(=O)CSc2nc(N)c(NC(=O)c3ccccc3F)c(=O)[nH]2)c1 | inconclusive: 31.6 µM [inhibitor, partial curve, poor fit]
CCn1ncc(C2=NOC(C(=O)N3CCN(c4ccccc4)CC3)C2)c1C (stereo unspecified) | inconclusive: 20.6 µM [activator, single point]
Cc1cc(/C=C2/NC(=O)N(Cc3ccccc3F)C2=O)c(C)n1C(C)C | inactive
CC1CCN(C(=O)COC(=O)CSc2ccc(C(N)=O)cc2[N+](=O)[O-])CC1 | inactive
COCCn1c(C)cc(C2=NNC(=Nc3ccccc3F)SC2)c1C | active: 2 µM
CS(=O)(=O)c1ccc(C(=O)OCc2nnc(-c3ccccc3)o2)cc1[N+](=O)[O-] | inconclusive: 8.91 µM [inhibitor, partial curve, poor fit]
O=C(c1cnc(N2CCOCC2)c2ccccc12)N1CCN(c2ccccc2F)CC1 | inactive
